Article PMC7504051, “Ilimaquinone Induces the Apoptotic Cell Death of Cancer Cells by Reducing Pyruvate Dehydrogenase Kinase 1 Activity” (International Journal of Molecular Sciences, 2020)
Results are given in words; binding and its absence hold for the method and conditions named. Binding seen in cells or lysates may run through a third protein. Some entries that bind do so weakly or less than the wild type.

Protein sequences, listed by entry. Tags and fused reporters are not part of them. Residues count along the entry.
UniProt Q15118, residues 29-436: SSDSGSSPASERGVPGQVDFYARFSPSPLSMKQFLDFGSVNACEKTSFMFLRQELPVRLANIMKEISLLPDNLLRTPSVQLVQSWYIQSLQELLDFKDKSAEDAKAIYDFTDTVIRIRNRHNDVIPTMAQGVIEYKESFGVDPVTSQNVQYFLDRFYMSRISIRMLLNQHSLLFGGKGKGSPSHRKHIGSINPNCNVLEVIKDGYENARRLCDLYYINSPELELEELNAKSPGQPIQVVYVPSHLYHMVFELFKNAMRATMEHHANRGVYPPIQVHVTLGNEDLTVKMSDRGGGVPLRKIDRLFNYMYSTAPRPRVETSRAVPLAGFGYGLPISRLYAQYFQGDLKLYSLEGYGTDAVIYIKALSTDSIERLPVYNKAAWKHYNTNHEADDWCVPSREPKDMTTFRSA

Target: GST-PDK1 (pyruvate dehydrogenase kinase 1) (UniProt Q15118)
Assay: pull-down; GST-PDK1 from transfected HEK293T lysate held on Glutathione Sepharose 4B beads and washed; HEK293T whole-cell lysates containing the PDH complex added with or without 50 μM IQ; Western blotting; only the target purified

B1: PDH-E2 subunit (dihydrolipoamide acetyltransferase, the E2 subunit of the pyruvate dehydrogenase complex) (protein, UniProt P10515 87-647)
chain: SLPPHQKVPLPSLSPTMQAGTIARWEKKEGDKINEGDLIAEVETDKATVGFESLEECYMAKILVAEGTRDVPIGAIICITVGKPEDIEAFKNYTLDSSAAPTPQAAPAPTPAATASPPTPSAQAPGSSYPPHMQVLLPALSPTMTMGTVQRWEKKVGEKLSEGDLLAEIETDKATIGFEVQEEGYLAKILVPEGTRDVPLGTPLCIIVEKEADISAFADYRPTEVTDLKPQVPPPTPPPVAAVPPTPQPLAPTPSAPCPATPAGPKGRVFVSPLAKKLAVEKGIDLTQVKGTGPDGRITKKDIDSFVPSKVAPAPAAVVPPTGPGMAPVPTGVFTDIPISNIRRVIAQRLMQSKQTIPHYYLSIDVNMGEVLLVRKELNKILEGRSKISVNDFIIKASALACLKVPEANSSWMDTVIRQNHVVDVSVAVSTPAGLITPIVFNAHIKGVETIANDVVSLATKAREGKLQPHEFQGGTFTISNLGMFGIKNFSAIINPPQACILAIGASEDKLVPADNEKGFDVASMMSVTLSCDHRVVDGAVGAQWLAEFRKYLEKPITMLL
  binding: binds
